Results are given in words; binding and its absence hold for the method and conditions named. For some assays here: In cells and extracts the contact can be indirect. Some binding calls cover weakened binding; strength is not graded here. Sequences can lack the tags named with a protein.

By UniProt entry, the sequences of proteins in these tests, tags left out. Residues count along the entry.
UniProt Q9NZZ3, residues 149-219: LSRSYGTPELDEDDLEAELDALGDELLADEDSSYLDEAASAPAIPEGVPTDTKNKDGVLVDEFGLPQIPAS

Assay [1] deals with T1, GAL4-BROX I354A (pGBKT7) (human (from the GenBank entry NM_144695.3)) (UniProt Q5VW32).
T1 sequence: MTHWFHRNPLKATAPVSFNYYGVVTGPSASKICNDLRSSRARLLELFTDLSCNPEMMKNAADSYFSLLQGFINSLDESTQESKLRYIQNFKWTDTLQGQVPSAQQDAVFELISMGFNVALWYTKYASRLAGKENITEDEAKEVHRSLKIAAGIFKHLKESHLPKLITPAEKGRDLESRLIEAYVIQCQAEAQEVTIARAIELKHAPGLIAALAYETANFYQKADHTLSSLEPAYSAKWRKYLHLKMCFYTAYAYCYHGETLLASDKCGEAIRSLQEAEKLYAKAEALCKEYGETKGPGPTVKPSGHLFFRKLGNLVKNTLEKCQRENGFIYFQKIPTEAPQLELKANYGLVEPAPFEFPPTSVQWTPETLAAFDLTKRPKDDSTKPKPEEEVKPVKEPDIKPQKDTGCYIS
Description: two-hybrid; yeast Y190 co-transformed with pGBKT7 (GAL4-BROX) and pVP16/HA plasmids, 3 days at 30C; β-galactosidase activity with CPRG, A540 nm.

In assay [2] the target is T2, GAL4-BROX L350A (pGBKT7) (human (from the GenBank entry NM_144695.3)) (UniProt Q5VW32).
T2 sequence: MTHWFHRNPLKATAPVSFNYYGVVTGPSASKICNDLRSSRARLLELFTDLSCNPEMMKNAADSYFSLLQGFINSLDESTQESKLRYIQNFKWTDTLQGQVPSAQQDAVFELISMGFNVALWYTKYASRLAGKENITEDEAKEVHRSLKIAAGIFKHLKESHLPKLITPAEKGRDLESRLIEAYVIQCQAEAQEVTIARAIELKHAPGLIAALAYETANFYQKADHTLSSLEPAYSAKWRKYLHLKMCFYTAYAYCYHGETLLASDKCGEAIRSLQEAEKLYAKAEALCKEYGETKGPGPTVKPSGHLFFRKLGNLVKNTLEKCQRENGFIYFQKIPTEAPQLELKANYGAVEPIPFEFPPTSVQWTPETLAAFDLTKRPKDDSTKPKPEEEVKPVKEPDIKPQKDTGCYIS
The description is as above.

The target in assay [3] is T3, GAL4-BROX fusion protein, wild type (pGBKT7) (human (from the GenBank entry NM_144695.3)) (UniProt Q5VW32).
T3 sequence: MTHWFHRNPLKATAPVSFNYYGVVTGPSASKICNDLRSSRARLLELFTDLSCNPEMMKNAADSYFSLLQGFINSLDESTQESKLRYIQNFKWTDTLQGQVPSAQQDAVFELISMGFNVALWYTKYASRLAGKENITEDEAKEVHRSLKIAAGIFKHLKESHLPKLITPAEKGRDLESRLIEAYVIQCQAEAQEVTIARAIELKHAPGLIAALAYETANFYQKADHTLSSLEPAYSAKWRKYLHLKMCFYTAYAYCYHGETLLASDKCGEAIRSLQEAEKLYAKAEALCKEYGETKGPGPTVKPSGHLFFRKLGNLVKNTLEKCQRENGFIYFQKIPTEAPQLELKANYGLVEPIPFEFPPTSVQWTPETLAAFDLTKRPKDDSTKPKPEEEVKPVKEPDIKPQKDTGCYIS
The assay is described as above.

The target of assay [4] is T4, Recombinant GST-tagged BROX L350A (human (from the GenBank entry NM_144695.3)) (UniProt Q5VW32).
T4 sequence: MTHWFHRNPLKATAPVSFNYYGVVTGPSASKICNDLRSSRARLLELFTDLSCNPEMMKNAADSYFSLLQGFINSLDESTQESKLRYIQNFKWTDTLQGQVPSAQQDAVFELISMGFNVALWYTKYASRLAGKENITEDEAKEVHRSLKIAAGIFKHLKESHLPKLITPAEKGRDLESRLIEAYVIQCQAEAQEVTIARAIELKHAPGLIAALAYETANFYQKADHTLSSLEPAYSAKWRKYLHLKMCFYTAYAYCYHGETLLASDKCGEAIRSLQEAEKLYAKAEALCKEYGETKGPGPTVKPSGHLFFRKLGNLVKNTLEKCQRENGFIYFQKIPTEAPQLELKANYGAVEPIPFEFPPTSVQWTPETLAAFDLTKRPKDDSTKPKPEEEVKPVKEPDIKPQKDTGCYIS
Description: pull-down; recombinant GST-BROX proteins on glutathione sepharose 4B beads as bait; clarified lysates of 293T cells transfected with GFP constructs as preys (50 mM Tris pH 7.4, 150 mM NaCl, 5 mM EDTA, 5% glycerol, 1% Triton X-100), 3h at 4°C; eluates blotted with α-GFP; only the target purified.

Assay [5] addresses T5, Recombinant GST-tagged wild-type BROX (human (from the GenBank entry NM_144695.3)) (UniProt Q5VW32).
T5 sequence: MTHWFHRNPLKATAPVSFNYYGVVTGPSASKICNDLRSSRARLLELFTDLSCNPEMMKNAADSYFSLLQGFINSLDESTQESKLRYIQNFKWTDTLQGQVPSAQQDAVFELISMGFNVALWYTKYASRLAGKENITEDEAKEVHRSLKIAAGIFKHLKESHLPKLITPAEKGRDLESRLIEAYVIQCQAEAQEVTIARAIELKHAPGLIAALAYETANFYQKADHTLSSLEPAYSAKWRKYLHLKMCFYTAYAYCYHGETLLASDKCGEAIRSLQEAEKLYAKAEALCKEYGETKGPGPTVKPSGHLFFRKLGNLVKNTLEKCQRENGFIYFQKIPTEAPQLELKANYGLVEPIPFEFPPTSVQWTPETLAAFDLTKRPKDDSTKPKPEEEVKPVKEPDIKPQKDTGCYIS
Described as above.

For the molecule “C-terminal fragment of human CHMP5 (residues 149–219) fused to a VP16 activation domain and an HA tag (pVP16/HA) (from UniProt Q9NZZ3 149-219) (domain or fragment)”, the binding entry in assay [1], in assay [2] and in assay [3] was “binds” each time.

B1: GFP-CHMP4B (protein, UniProt Q9H444 1-224)
chain: MSVFGKLFGAGGGKAGKGGPTPQEAIQRLRDTEEMLSKKQEFLEKKIEQELTAAKKHGTKNKRAALQALKRKKRYEKQLAQIDGTLSTIEFQREALENANTNTEVLKNMGYAAKAMKAAHDNMDIDKVDELMQDIADQQELAEEISTAISKPVGFGEEFDEDELMAELEELEQEELDKNLLEISGPETVPLPNVPSIALPSKPAKKKEEEDDDMKELENWAGSM
For the molecule B1, the binding result in assay [4] and in assay [5] was “binds” in each case.

B2: CHMP4B fused to a VP16 activation domain and an HA tag (pVP16/HA) (protein, UniProt Q9H444 1-224)
chain: MSVFGKLFGAGGGKAGKGGPTPQEAIQRLRDTEEMLSKKQEFLEKKIEQELTAAKKHGTKNKRAALQALKRKKRYEKQLAQIDGTLSTIEFQREALENANTNTEVLKNMGYAAKAMKAAHDNMDIDKVDELMQDIADQQELAEEISTAISKPVGFGEEFDEDELMAELEELEQEELDKNLLEISGPETVPLPNVPSIALPSKPAKKKEEEDDDMKELENWAGSM
Turning to B2, the binding entry in assay [1], in assay [2] and in assay [3] was “binds” throughout.

These data come from PMC8657813.
